Like-named read-outs stand apart in the source and are kept apart here. At least one read-out could not be matched to a standard name with certainty. Marks after values point to notes of the source that are not given here.
Test system: aspirin-induced gastric lesions
Assay type: in vivo, Male Sprague-Dawley rats
Conditions: vs aspirin-alone control
Description: For these experiments, the test materials were suspended in 0.5% methyl cellulose aqueous solutions. The pH of the aspirin solution was 2.7 and the pH of the solutions containing the purine materials was adjusted to pH 2.7 using HC1.
Male Sprague-Dawley rats were obtained (approximate weight = 150 grams each) and allowed to acclimate for at least 4 days. During this period the animals were allowed Purina Rat Chow and,tap water ad libitum. The animals were food fasted about 18 hours prior to dosing; during this period water was provided ad libitum.
The rats were dosed by oral gavage using a #8 catheter attached to a 1 cc syringe. The animals were dosed and sacrificed according to a predetermined schedule (the dosing order was determined at random prior to starting each experiment). After dosing, the animals were also water fasted.
The rats were sacrificed, either by C02 inhalation or cervical dislocation, two hours after dosing. Their stomachs were removed intact and placed on plastic-backed absorbent paper. The stomachs were then opened along the greater curvature, the fundus and esophagus were removed and the stomach was spread over a piece of white cardboard, using cotton-tipped applicators to level the rugae. The stomachs were then examined, using a dissecting microscope at 7X magnification, and the length of each lesion present was determined using a calibrated reticule.
In this table, N indicates the number of rats tested for the stated dosage.
In other experiments aspirin and adenosine were dosed at separate times.

| SMILES | % Reduction in Lesions (purine derivative dose 250 mg/kg with 125 mg/kg aspirin) | % Reduction in Lesions (purine derivative dose 80 mg/kg with 125 mg/kg aspirin) [%] | % Reduction in Lesions (purine derivative dose 155 mg/kg with 125 mg/kg aspirin) |
| --- | --- | --- | --- |
| Nc1ncnc2c1ncn2[C@@H]1O[C@H](COP(=O)(O)OP(=O)(O)O)[C@@H](O)[C@H]1O [Adenosine-5'-diphosphate (ADP), adenosine-5'-diphosphate] | 82.5* % |  |  |
| Nc1ncnc2c1ncn2[C@@H]1O[C@H](COP(=O)(O)O)[C@@H](O)[C@H]1O [Adenosine-5'-monophosphate (AMP), adenosine-5'-monophosphate] |  | 59 | 79* % |
